# Reference: the supplement of paper PMC6411743
# By UniProt entry, the sequences of proteins in these tests, tags left out. Where a name states a change or a piece, a line headed by the entry shows the natural chain unless it says otherwise.
# UniProt Q9P2E9: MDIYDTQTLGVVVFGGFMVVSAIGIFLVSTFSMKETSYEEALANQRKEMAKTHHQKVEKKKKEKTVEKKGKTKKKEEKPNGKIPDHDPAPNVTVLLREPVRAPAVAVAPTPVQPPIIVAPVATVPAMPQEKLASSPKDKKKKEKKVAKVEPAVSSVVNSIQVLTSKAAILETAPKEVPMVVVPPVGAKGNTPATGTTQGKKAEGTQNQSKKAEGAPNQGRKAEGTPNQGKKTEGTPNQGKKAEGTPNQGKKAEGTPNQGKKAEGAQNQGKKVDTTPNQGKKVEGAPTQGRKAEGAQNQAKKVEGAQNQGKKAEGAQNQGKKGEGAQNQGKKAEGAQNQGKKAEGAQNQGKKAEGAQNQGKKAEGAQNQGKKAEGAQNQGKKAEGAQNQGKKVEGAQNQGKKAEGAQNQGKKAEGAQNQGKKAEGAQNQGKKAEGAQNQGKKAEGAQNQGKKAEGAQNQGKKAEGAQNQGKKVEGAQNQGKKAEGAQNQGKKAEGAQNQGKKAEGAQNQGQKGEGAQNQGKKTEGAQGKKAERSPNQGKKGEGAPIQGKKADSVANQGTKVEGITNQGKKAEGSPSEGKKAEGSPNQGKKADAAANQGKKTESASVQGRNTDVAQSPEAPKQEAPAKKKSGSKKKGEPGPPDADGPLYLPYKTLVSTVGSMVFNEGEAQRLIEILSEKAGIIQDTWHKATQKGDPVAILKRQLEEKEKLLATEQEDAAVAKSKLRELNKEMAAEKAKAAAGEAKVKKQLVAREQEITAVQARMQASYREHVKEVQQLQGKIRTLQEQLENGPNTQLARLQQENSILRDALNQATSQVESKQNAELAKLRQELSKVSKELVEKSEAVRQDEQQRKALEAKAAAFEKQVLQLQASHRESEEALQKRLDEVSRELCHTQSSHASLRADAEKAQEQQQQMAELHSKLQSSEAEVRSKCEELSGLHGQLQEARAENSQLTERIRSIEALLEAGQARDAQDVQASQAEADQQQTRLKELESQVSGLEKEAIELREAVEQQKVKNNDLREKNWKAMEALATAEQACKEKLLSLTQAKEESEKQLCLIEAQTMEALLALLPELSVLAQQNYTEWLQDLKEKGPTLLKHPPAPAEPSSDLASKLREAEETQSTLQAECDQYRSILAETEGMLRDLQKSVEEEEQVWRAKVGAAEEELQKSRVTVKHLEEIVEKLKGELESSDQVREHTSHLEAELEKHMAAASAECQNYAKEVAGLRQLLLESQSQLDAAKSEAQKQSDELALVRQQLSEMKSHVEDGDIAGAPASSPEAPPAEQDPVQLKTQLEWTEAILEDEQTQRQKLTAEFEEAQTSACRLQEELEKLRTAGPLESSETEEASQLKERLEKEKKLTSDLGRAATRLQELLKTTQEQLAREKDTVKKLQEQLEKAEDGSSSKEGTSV
# UniProt Q9UQN3, whole entry: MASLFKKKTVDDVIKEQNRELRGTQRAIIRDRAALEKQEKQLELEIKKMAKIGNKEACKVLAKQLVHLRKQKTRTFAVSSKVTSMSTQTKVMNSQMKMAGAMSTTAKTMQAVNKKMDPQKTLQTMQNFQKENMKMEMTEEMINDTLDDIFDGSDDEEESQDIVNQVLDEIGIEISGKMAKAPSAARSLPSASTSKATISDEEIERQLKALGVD
# UniProt Q7Z3B3: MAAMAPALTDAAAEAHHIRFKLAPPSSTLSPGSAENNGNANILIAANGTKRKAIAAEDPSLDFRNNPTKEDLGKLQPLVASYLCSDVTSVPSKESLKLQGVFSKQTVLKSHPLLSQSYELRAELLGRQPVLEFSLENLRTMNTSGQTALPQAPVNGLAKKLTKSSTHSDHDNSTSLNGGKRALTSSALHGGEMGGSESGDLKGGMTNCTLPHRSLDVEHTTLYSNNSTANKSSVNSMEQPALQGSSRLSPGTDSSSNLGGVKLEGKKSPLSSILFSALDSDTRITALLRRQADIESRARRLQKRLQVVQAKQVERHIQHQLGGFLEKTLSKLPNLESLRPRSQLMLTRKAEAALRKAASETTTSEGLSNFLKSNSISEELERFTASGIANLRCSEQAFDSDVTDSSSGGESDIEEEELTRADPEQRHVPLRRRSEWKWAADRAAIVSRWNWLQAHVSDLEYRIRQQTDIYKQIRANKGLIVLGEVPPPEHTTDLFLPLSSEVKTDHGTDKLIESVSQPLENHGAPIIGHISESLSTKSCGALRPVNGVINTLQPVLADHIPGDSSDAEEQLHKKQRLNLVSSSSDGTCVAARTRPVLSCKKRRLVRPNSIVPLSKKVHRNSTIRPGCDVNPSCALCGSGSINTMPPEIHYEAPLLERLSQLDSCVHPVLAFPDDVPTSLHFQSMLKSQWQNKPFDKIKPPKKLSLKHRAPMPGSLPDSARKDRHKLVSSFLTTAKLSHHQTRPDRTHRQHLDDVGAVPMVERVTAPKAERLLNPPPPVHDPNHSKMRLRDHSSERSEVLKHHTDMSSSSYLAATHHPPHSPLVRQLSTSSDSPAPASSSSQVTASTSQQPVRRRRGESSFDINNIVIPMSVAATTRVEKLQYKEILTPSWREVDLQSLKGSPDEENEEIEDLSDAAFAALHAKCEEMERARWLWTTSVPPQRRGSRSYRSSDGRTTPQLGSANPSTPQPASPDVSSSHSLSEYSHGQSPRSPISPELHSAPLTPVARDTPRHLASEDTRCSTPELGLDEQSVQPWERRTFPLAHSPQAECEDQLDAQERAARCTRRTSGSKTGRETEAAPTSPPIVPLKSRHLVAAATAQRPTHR
# UniProt Q96KQ7: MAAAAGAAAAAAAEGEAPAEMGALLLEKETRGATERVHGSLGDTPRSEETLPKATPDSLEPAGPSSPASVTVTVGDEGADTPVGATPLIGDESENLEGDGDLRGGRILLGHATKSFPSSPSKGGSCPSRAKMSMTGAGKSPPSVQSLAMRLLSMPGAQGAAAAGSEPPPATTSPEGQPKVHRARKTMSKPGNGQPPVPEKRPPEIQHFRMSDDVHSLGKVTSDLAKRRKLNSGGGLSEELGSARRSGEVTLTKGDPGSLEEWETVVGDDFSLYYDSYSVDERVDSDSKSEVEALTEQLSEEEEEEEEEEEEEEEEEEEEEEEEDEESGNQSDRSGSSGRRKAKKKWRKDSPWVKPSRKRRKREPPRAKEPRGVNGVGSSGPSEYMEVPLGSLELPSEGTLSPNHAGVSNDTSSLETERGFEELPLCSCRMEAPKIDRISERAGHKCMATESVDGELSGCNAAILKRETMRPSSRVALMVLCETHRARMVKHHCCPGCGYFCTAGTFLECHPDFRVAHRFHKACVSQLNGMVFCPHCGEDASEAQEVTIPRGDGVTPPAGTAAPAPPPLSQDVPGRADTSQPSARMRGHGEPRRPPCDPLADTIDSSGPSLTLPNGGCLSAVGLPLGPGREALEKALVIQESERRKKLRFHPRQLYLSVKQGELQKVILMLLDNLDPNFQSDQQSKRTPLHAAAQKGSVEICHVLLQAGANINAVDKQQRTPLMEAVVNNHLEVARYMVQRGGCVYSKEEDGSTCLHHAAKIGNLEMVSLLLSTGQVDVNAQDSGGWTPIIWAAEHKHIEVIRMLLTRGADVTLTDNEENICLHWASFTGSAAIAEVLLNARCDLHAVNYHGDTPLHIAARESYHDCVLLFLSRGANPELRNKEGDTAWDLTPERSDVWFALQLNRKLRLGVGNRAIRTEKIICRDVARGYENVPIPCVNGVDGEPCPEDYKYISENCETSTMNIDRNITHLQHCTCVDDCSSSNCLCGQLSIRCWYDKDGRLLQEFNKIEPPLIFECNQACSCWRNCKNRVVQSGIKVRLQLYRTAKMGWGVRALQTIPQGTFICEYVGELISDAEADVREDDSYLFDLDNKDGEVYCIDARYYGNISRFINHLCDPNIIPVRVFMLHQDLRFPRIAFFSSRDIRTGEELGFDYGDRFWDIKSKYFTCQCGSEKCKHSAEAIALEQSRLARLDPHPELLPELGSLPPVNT
# UniProt Q2M2I8: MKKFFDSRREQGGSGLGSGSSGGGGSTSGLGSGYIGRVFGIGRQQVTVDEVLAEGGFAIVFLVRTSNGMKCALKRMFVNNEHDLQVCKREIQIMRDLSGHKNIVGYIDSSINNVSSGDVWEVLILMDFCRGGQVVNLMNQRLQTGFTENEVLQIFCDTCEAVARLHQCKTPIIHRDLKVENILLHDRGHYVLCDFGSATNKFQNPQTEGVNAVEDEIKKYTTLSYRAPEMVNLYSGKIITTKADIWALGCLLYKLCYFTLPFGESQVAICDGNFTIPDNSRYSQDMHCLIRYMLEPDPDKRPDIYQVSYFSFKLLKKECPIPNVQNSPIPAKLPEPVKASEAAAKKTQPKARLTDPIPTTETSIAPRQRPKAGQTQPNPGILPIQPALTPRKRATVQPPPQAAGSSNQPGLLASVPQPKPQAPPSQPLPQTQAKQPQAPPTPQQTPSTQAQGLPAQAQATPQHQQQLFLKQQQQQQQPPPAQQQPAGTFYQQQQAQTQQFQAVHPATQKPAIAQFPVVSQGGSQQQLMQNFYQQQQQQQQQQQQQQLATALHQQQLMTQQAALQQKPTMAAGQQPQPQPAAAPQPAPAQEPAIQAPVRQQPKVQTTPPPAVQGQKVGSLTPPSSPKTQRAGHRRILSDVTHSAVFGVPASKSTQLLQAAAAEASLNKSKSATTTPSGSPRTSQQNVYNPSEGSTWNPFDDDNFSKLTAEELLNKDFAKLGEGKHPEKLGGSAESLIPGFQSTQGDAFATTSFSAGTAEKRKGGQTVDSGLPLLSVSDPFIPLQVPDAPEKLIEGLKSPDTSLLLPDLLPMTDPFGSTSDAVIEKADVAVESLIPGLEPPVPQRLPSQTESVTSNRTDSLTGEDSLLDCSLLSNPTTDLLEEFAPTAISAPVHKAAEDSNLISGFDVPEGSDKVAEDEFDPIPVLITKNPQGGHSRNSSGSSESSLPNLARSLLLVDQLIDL
# UniProt P20810: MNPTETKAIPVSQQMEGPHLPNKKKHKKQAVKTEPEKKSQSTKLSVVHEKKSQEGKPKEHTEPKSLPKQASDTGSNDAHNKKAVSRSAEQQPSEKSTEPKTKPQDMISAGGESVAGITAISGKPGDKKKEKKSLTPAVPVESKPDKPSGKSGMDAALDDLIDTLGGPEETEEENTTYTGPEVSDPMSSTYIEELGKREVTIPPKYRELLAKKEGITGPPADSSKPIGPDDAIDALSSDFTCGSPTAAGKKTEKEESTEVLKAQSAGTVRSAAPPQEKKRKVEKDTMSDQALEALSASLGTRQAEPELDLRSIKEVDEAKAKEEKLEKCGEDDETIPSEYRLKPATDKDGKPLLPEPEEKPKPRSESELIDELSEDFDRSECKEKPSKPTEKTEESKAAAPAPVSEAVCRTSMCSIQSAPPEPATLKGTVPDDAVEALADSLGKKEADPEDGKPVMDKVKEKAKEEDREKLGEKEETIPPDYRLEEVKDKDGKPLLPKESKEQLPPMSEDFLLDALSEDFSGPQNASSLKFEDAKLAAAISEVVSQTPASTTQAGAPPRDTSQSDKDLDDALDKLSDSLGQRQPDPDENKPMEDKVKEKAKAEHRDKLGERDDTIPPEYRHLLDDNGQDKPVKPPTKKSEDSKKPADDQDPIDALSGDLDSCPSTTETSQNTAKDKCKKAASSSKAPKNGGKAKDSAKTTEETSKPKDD
# UniProt P57737: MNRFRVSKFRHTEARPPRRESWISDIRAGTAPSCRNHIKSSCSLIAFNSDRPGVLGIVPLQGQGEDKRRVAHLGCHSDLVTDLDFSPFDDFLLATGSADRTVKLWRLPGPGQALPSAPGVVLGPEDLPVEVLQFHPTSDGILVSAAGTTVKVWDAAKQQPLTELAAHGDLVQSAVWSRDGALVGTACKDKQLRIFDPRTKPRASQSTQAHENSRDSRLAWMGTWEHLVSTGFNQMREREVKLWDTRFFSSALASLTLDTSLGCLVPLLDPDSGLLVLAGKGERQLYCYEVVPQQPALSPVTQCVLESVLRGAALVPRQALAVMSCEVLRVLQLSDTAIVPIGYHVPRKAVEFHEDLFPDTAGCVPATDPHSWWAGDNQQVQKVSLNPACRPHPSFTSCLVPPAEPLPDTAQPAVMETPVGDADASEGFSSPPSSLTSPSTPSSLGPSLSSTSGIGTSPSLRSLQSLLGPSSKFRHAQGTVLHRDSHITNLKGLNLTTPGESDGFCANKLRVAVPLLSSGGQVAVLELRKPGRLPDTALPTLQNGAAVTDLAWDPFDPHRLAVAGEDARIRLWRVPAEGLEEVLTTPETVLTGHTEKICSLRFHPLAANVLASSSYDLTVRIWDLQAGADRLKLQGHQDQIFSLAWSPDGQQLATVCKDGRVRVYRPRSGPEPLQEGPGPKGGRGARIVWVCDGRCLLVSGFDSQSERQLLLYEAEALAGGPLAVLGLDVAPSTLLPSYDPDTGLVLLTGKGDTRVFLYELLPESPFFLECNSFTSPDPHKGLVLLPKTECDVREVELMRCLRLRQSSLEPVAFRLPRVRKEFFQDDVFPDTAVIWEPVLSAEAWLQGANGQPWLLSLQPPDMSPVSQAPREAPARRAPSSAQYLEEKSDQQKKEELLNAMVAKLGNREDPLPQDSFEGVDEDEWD
# ± gives the standard deviation of the averaged measurements. This is a selection; strong and weak results do not stand in their true shares.
# Compound: Nc1ncnc2c1ncn2[C@@H]1O[C@H](COP(=O)(O)OP(=O)(O)NP(=O)(O)O)[C@@H](O)[C@H]1O [adenylyl imidodiphosphate]
# Assay: NP40-soluble protein abundance relative to vehicle (solubility fold change) (ratio); higher = more soluble protein in presence of AMP-PNP
# Method in brief: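 Jurkat crude lysate (Dounce-homogenised) was treated with eight concentrations from 0.1 to 10 mM for 10 min at room temperature, then 3 min at 37 °C. It was solubilised with 0.8% NP40 and benzonase (60 min, 4 °C) and ultracentrifuged, and the supernatant was TMT-labelled for LC-MS/MS. Intensities were vsn-normalised, and the value is the fold change against the NP40-processed vehicle per replicate, from three independent experiments.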
Target,NP40-soluble protein abundance (concentration: 1mM),NP40-soluble protein abundance (concentration: 2mM),NP40-soluble protein abundance (concentration: 4mM),NP40-soluble protein abundance (concentration: 6mM),NP40-soluble protein abundance (concentration: 8mM),NP40-soluble protein abundance (concentration: 10mM)
A0A140T9R1|A2ABJ5 and related entries (UniProt O75955),1.04 ± 0.048,1 ± 0.018,1.06 ± 0.072,0.969 ± 0.065,1.03 ± 0.074,0.968 ± 0.072
A0A0A6YYC8|I3L1I5 (UniProt I3L1I5),1.01 ± 0.027,1.02 ± 0.04,1.02 ± 0.012,1.01 ± 0.023,1 ± 0.02,1.009 ± 0.0072
SH3PXD2B (UniProt A1X283),1.02 ± 0.025,1.06 ± 0.057,1.04 ± 0.044,0.988 ± 0.031,0.984 ± 0.042,0.996 ± 0.038
A0A087X0S7|A0A0B4J2G4|Q15345 and related entries (UniProt Q15345),1.04 ± 0.014,1.07 ± 0.057,1.02 ± 0.018,1.02 ± 0.032,1.016 ± 0.0041,1.01 ± 0.033
A0A0A0MRV0|Q9P2E9 (UniProt Q9P2E9),1.01 ± 0.048,1.11 ± 0.075,0.977 ± 0.046,0.983 ± 0.033,0.953 ± 0.024,0.97 ± 0.029
A0A087X0K1|Q9Y376 (UniProt Q9Y376),1 ± 0.015,0.997 ± 0.019,1.01 ± 0.012,1.02 ± 0.06,1.03 ± 0.042,1.02 ± 0.038
A0A0A0MRI1|Q8IXQ4 (UniProt Q8IXQ4),1.07 ± 0.028,1.14 ± 0.057,1.08 ± 0.055,1.07 ± 0.02,1.04 ± 0.034,1.05 ± 0.075
A0A0A0MRP6|B7ZLQ5 and related entries (UniProt P28370),1.03 ± 0.058,1.02 ± 0.049,1.09 ± 0.064,1.06 ± 0.055,1.11 ± 0.049,1.09 ± 0.046
A0A087WW88|Q9UQN3 (UniProt Q9UQN3),1.03 ± 0.024,1.03 ± 0.0098,1.03 ± 0.03,1.04 ± 0.018,1.03 ± 0.042,1.03 ± 0.014
A0A0G2JJD3|O95870 and related entries (UniProt O95870),0.9652 ± 0.0078,0.968 ± 0.034,0.974 ± 0.018,0.9683 ± 0.0022,0.98 ± 0.029,0.932 ± 0.012
A0A087X0H7|Q8NEL9 and related entries (UniProt Q8NEL9),0.995 ± 0.016,0.982 ± 0.065,1.02 ± 0.024,1.07 ± 0.09,1.05 ± 0.065,1.08 ± 0.12
A0A0C4DH44|P62888 (UniProt P62888),1.01 ± 0.1,0.984 ± 0.069,0.953 ± 0.12,0.931 ± 0.087,0.94 ± 0.1,0.951 ± 0.11
A0A0J9YWD5|A0A0J9YYB5|B7ZM65 and related entries (UniProt Q9P1Y6),0.998 ± 0.042,1.06 ± 0.054,1.05 ± 0.035,1.02 ± 0.017,1.02 ± 0.033,1.03 ± 0.05
A0A0J9YXJ0|E9PC62 and related entries (UniProt O95319),0.995 ± 0.02,0.986 ± 0.015,0.997 ± 0.024,0.985 ± 0.029,0.962 ± 0.017,0.974 ± 0.053
A0A0C4DG78|M0R3C6 and related entries (UniProt Q8TBC5),1 ± 0.012,1.02 ± 0.03,0.984 ± 0.028,1.016 ± 0.003,1.002 ± 0.0089,1.02 ± 0.011
A0A0C4DGC9|Q8TDR2 (UniProt Q8TDR2),1 ± 0.036,1.05 ± 0.034,1.06 ± 0.029,1.04 ± 0.042,1.03 ± 0.021,1.06 ± 0.043
A0A087X0R0|F5H6S1 and related entries (UniProt O15550),1 ± 0.047,1.02 ± 0.035,1.02 ± 0.047,1.03 ± 0.032,0.984 ± 0.041,1.01 ± 0.079
A0A0C4DGV9|P49917 (UniProt P49917),1.02 ± 0.032,0.969 ± 0.12,1.02 ± 0.06,1.04 ± 0.078,1.05 ± 0.073,1.01 ± 0.056
A0A0A0MSB8|Q9UPT5 and related entries (UniProt Q9UPT5),0.982 ± 0.019,1 ± 0.048,0.9615 ± 0.0086,0.9529 ± 0.0078,0.948 ± 0.012,0.9521 ± 0.0061
A0A0A0MTB0|A0A0J9YYI4|D6RHG7 and related entries (UniProt Q86VE9),0.9854 ± 0.0076,0.973 ± 0.036,0.977 ± 0.03,0.955 ± 0.032,0.954 ± 0.023,0.949 ± 0.043
A0A0C4DGH2|P62070 and related entries (UniProt P62070),0.999 ± 0.022,0.994 ± 0.045,1.05 ± 0.066,1.1 ± 0.068,1.08 ± 0.053,1.1 ± 0.057
A0A0G2JNT7|A0A0G2JQF4|Q7Z3B3 and related entries (UniProt Q7Z3B3),0.999 ± 0.037,1.04 ± 0.078,1.02 ± 0.057,1.05 ± 0.048,1.02 ± 0.055,1.05 ± 0.083
A0A0G2JIS2|Q96KQ7 and related entries (UniProt Q96KQ7),1 ± 0.04,1.03 ± 0.026,1.01 ± 0.02,0.992 ± 0.021,0.987 ± 0.028,0.994 ± 0.024
A0A096LP25|Q2M2I8 and related entries (UniProt Q2M2I8),1.07 ± 0.02,1.11 ± 0.041,1.11 ± 0.026,1.09 ± 0.024,1.08 ± 0.02,1.11 ± 0.012
A0A0C4DGB5|P20810-10|P20810-6 (UniProt P20810),1.01 ± 0.025,1.07 ± 0.08,1 ± 0.034,1.002 ± 0.0065,0.978 ± 0.03,0.984 ± 0.057
A0A0A6YYL4|P57737-3 (UniProt P57737),1.01 ± 0.013,0.9994 ± 0.0071,1.02 ± 0.02,0.985 ± 0.011,0.993 ± 0.034,0.9577 ± 0.0086
A0A0C4DGJ7 (UniProt Q8WUH1),0.989 ± 0.017,0.965 ± 0.056,0.9939 ± 0.0022,0.9571 ± 0.0027,0.983 ± 0.024,0.9432 ± 0.0042
A0A0A0MSK4 (UniProt Q86YR5),1.01 ± 0.041,1.04 ± 0.059,1.03 ± 0.047,0.981 ± 0.0099,1 ± 0.035,1 ± 0.037
A0A140T998|P28062 and related entries (UniProt X5D2R7+Q5JNW7+P28062),0.946 ± 0.041,0.899 ± 0.078,0.904 ± 0.08,0.915 ± 0.065,0.934 ± 0.11,0.934 ± 0.13

# An excerpt from above with just NP40-soluble protein abundance (concentration: 4mM), NP40-soluble protein abundance (concentration: 6mM) and NP40-soluble protein abundance (concentration: 1mM):
Target,NP40-soluble protein abundance (concentration: 4mM),NP40-soluble protein abundance (concentration: 6mM),NP40-soluble protein abundance (concentration: 1mM)
A0A0A0MRV0|Q9P2E9 (UniProt Q9P2E9),0.977 ± 0.046,0.983 ± 0.033,1.01 ± 0.048
A0A096LP25|Q2M2I8 and related entries (UniProt Q2M2I8),1.11 ± 0.026,1.09 ± 0.024,1.07 ± 0.02
